# Results from the supplement of paper PMC4604168 (melanoma cell lines).
# Some of the results follow. Repeats are few or missing, and single values can be far off.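 The apoptosis fraction was the count of cleaved-PARP antibody-stained nuclei relative to all DNA-stained nuclei, imaged in 1,536-well plates. Screening doses were set so most cells survived, and baseline and induced cleaved-PARP levels vary greatly across cell lines.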
# Tests used:
# Assay in all cases: cleaved PARP positive nuclei fraction relative to DMSO control; melanoma cells; higher = more apoptosis
# Details in all cases: library dose: low library concentration; 72 h
# 501Mel = tested on: 501Mel
# A101D = tested on: A101D
# A2058 = tested on: A2058
# A375 = tested on: A375
# C32 = tested on: C32
# CBRC008 = tested on: CBRC008 (line from a melanoma biopsy)
# CBRC014 = tested on: CBRC014 (line from a melanoma biopsy)
# CBRC016 = tested on: CBRC016 (line from a melanoma biopsy)
# CBRC017 = tested on: CBRC017 (line from a melanoma biopsy)
SMILES,cleaved PARP positive nuclei fraction (501Mel) [%],cleaved PARP positive nuclei fraction (A101D) [%],cleaved PARP positive nuclei fraction (A2058) [%],cleaved PARP positive nuclei fraction (A375) [%],cleaved PARP positive nuclei fraction (C32) [%],cleaved PARP positive nuclei fraction (CBRC008) [%],cleaved PARP positive nuclei fraction (CBRC014) [%],cleaved PARP positive nuclei fraction (CBRC016) [%],cleaved PARP positive nuclei fraction (CBRC017) [%]
"Nc1ncn([C@H]2C[C@H](O)[C@@H](CO)O2)c(=O)n1 [decitabine] + C[As](C)SC[C@H](NC(=O)CC[C@H](N)C(=O)O)C(=O)NCC(=O)O [Darinaparsin] (first compound 0.1 µM, partner dose 0.4 µM)",134,42.8,164,31.3,72.6,101,102,130,106
"Nc1ccn([C@@H]2O[C@H](CO)[C@@H](O)C2(F)F)c(=O)n1 [gemcitabine] + C[As](C)SC[C@H](NC(=O)CC[C@H](N)C(=O)O)C(=O)NCC(=O)O [Darinaparsin] (first compound 0.0004 µM, partner dose 0.4 µM)",129,97.9,112,84,69.1,85.5,162,90.7,235
"CN1CCN(c2ccc3nc(-c4c(N)c5c(F)cccc5[nH]c4=O)[nH]c3c2)CC1 [Dovitinib] + C[As](C)SC[C@H](NC(=O)CC[C@H](N)C(=O)O)C(=O)NCC(=O)O [Darinaparsin] (first compound 0.1 µM, partner dose 0.4 µM)",92.7,106,222,201,79.3,32.5,100,118,120
"O=C(/C=C/c1cccnc1)NCCCCC1CCN(C(=O)c2ccccc2)CC1 + C[As](C)SC[C@H](NC(=O)CC[C@H](N)C(=O)O)C(=O)NCC(=O)O [Darinaparsin] (first compound 0.01 µM, partner dose 0.4 µM)",79.1,193,82.3,42.4,162,3680,96.4,1250,291
"NC1(c2ccc(-c3nc4ccn5c(=O)[nH]nc5c4cc3-c3ccccc3)cc2)CCC1 + N.N.[Cl][Pt][Cl] [cisplatin] (first compound 0.4 µM, partner dose 1.6 µM)",151,51.3,70,149,85.8,196,85.5,33.9,130
"C[C@]12O[C@H](C[C@]1(O)CO)n1c3ccccc3c3c4c(c5c6ccccc6n2c5c31)CNC4=O [Lestaurtinib] + CNC(=O)c1cc(Oc2ccc(NC(=O)Nc3ccc(Cl)c(C(F)(F)F)c3)cc2)ccn1 [sorafenib] (first compound 0.004 µM, partner dose 0.4 µM)",65,208,123,77.5,165,110,88.6,196,136
"C[C@]12O[C@H](C[C@]1(O)CO)n1c3ccccc3c3c4c(c5c6ccccc6n2c5c31)CNC4=O [Lestaurtinib] + C=C(c1ccc(C(=O)O)cc1)c1cc2c(cc1C)C(C)(C)CCC2(C)C [Bexarotene] (first compound 0.004 µM, partner dose 2 µM)",231,51,143,107,70.9,118,91.9,151,151
"CC[C@]1(O)C[C@H]2CN(CCc3c([nH]c4ccccc34)[C@@](C(=O)OC)(c3cc4c(cc3OC)N(C=O)[C@H]3[C@@](O)(C(=O)OC)[C@H](OC(C)=O)[C@]5(CC)C=CCN6CC[C@]43[C@@H]65)C2)C1 [vincristine] + C[As](C)SC[C@H](NC(=O)CC[C@H](N)C(=O)O)C(=O)NCC(=O)O [Darinaparsin] (first compound 0.0001 µM, partner dose 0.4 µM)",144,170,1480,337,231,202,105,73.4,134
"CC1(C)CCC(c2ccc(Cl)cc2)=C(CN2CCN(c3ccc(C(=O)NS(=O)(=O)c4ccc(N[C@H](CCN5CCOCC5)CSc5ccccc5)c(S(=O)(=O)C(F)(F)F)c4)cc3)CC2)C1 + C[As](C)SC[C@H](NC(=O)CC[C@H](N)C(=O)O)C(=O)NCC(=O)O [Darinaparsin] (first compound 0.4 µM, partner dose 0.4 µM)",118,135,150,397,177,942,516,2670,249
"C[C@]12O[C@H](C[C@]1(O)CO)n1c3ccccc3c3c4c(c5c6ccccc6n2c5c31)CNC4=O [Lestaurtinib] + CCCS(=O)(=O)Nc1ccc(F)c(C(=O)c2c[nH]c3ncc(Cl)cc23)c1F [PLX4720] (first compound 0.004 µM, partner dose 0.08 µM)",66.4,123,126,199,79.1,45.9,87.1,147,84.8
"Cn1cc(C2=C(c3cn(C4CCN(Cc5ccccn5)CC4)c4ccccc34)C(=O)NC2=O)c2ccccc21 [Enzastaurin] + Cn1c(Nc2ccc(C(F)(F)F)cc2)nc2cc(Oc3ccnc(-c4ncc(C(F)(F)F)[nH]4)c3)ccc21 [CHIR265] (first compound 0.8 µM, partner dose 0.08 µM)",99.3,134,275,302,75.5,418,98.1,168,133
"C[C@]12O[C@H](C[C@]1(O)CO)n1c3ccccc3c3c4c(c5c6ccccc6n2c5c31)CNC4=O [Lestaurtinib] + COc1ccc(Cl)c(Nc2nc3ccccc3nc2NS(=O)(=O)c2cccc(NC(=O)C(C)(C)N)c2)c1 [XL147] (first compound 0.004 µM, partner dose 0.8 µM)",53.6,48.1,90,152,96,776,245,233,149
"Cn1cc(C2=C(c3cn(C4CCN(Cc5ccccn5)CC4)c4ccccc34)C(=O)NC2=O)c2ccccc21 [Enzastaurin] + CN(c1ncccc1CNc1nc(Nc2ccc3c(c2)CC(=O)N3)ncc1C(F)(F)F)S(C)(=O)=O [PF562271] (first compound 0.8 µM, partner dose 0.08 µM)",77.7,53.1,147,150,47,405,91.1,206,145
"N.N.[Cl][Pt][Cl] [cisplatin] + Nc1cccc2c1CN(C1CCC(=O)NC1=O)C2=O [lenalidomide] (first compound 1.6 µM, partner dose 1 µM)",314,127,102,141,95.4,201,102,124,226
"Cn1cc(C2=C(c3cn(C4CCN(Cc5ccccn5)CC4)c4ccccc34)C(=O)NC2=O)c2ccccc21 [Enzastaurin] + Cc1nc(Nc2ncc(C(=O)Nc3c(C)cccc3Cl)s2)cc(N2CCN(CCO)CC2)n1 [dasatanib] (first compound 0.8 µM, partner dose 0.004 µM)",137,116,84.1,33.2,95.9,30.4,96.6,84.3,113
"N.N.[Cl][Pt][Cl] [cisplatin] + CO[C@H]1C[C@@H]2CC[C@@H](C)[C@@](O)(O2)C(=O)C(=O)N2CCCC[C@H]2C(=O)O[C@H]([C@H](C)C[C@@H]2CC[C@@H](OCCO)[C@H](OC)C2)CC(=O)[C@H](C)/C=C(\C)[C@@H](O)[C@@H](OC)C(=O)[C@H](C)C[C@H](C)/C=C/C=C/C=C/1C [everolimus] (first compound 1.6 µM, partner dose 0.02 µM)",195,109,68,452,102,196,125,163,133
"Cn1cc(C2=C(c3cn(C4CCN(Cc5ccccn5)CC4)c4ccccc34)C(=O)NC2=O)c2ccccc21 [Enzastaurin] + CN1CCN(c2ccc3nc(-c4c(N)c5c(F)cccc5[nH]c4=O)[nH]c3c2)CC1 [Dovitinib] (first compound 0.8 µM, partner dose 0.1 µM)",53.6,51.5,164,156,73.5,189,95.5,35.2,114
"N.N.[Cl][Pt][Cl] [cisplatin] + C[C@@H](Oc1cc(-c2cnn(C3CCNCC3)c2)cnc1N)c1c(Cl)ccc(F)c1Cl [Crizotinib] (first compound 1.6 µM, partner dose 0.2 µM)",102,161,91.3,152,90.4,232,102,256,124
"N.N.[Cl][Pt][Cl] [cisplatin] + Cn1c(Nc2ccc(C(F)(F)F)cc2)nc2cc(Oc3ccnc(-c4ncc(C(F)(F)F)[nH]4)c3)ccc21 [CHIR265] (first compound 1.6 µM, partner dose 0.08 µM)",49.4,62.1,168,34.9,73.8,95,120,119,113
"Nc1nc(F)nc2c1ncn2[C@@H]1O[C@H](CO)[C@@H](O)[C@@H]1O [fludarabine] + C[As](C)SC[C@H](NC(=O)CC[C@H](N)C(=O)O)C(=O)NCC(=O)O [Darinaparsin] (first compound 0.2 µM, partner dose 0.4 µM)",13100,201,76.5,2270,86.4,68.6,102,96.4,73.3
"CCCCCCCCc1ccc(CCC(N)(CO)CO)cc1 [fingolimod] + C[As](C)SC[C@H](NC(=O)CC[C@H](N)C(=O)O)C(=O)NCC(=O)O [Darinaparsin] (first compound 2 µM, partner dose 0.4 µM)",203,102,155,141,70.5,51.5,104,99,237
"O=C(/C=C/c1cccnc1)NCCCCC1CCN(C(=O)c2ccccc2)CC1 + Cn1cc(C2=C(c3cn(C4CCN(Cc5ccccn5)CC4)c4ccccc34)C(=O)NC2=O)c2ccccc21 [Enzastaurin] (first compound 0.01 µM, partner dose 0.8 µM)",129,87.7,86.9,538,64,3680,110,849,467
"N.N.[Cl][Pt][Cl] [cisplatin] + Cc1nc(Nc2ncc(C(=O)Nc3c(C)cccc3Cl)s2)cc(N2CCN(CCO)CC2)n1 [dasatanib] (first compound 1.6 µM, partner dose 0.004 µM)",421,109,123,168,41.4,80.8,120,195,133

# Quoted at random: two records from the list
SMILES,cleaved PARP positive nuclei fraction (501Mel) [%],cleaved PARP positive nuclei fraction (A101D) [%],cleaved PARP positive nuclei fraction (A2058) [%],cleaved PARP positive nuclei fraction (A375) [%],cleaved PARP positive nuclei fraction (C32) [%],cleaved PARP positive nuclei fraction (CBRC008) [%],cleaved PARP positive nuclei fraction (CBRC014) [%],cleaved PARP positive nuclei fraction (CBRC016) [%],cleaved PARP positive nuclei fraction (CBRC017) [%]
"O=C(/C=C/c1cccnc1)NCCCCC1CCN(C(=O)c2ccccc2)CC1 + C[As](C)SC[C@H](NC(=O)CC[C@H](N)C(=O)O)C(=O)NCC(=O)O [Darinaparsin] (first compound 0.01 µM, partner dose 0.4 µM)",79.1,193,82.3,42.4,162,3680,96.4,1250,291
"NC1(c2ccc(-c3nc4ccn5c(=O)[nH]nc5c4cc3-c3ccccc3)cc2)CCC1 + N.N.[Cl][Pt][Cl] [cisplatin] (first compound 0.4 µM, partner dose 1.6 µM)",151,51.3,70,149,85.8,196,85.5,33.9,130
